We go through one substance from publication PMC10466926.

Chains of the proteins cited; added tags and fusions are not shown. Lines headed by an entry give the natural chain unless they say otherwise; changes in a name come on top. Residues count along the entry.
UniProt Q931P4, residues 41-860: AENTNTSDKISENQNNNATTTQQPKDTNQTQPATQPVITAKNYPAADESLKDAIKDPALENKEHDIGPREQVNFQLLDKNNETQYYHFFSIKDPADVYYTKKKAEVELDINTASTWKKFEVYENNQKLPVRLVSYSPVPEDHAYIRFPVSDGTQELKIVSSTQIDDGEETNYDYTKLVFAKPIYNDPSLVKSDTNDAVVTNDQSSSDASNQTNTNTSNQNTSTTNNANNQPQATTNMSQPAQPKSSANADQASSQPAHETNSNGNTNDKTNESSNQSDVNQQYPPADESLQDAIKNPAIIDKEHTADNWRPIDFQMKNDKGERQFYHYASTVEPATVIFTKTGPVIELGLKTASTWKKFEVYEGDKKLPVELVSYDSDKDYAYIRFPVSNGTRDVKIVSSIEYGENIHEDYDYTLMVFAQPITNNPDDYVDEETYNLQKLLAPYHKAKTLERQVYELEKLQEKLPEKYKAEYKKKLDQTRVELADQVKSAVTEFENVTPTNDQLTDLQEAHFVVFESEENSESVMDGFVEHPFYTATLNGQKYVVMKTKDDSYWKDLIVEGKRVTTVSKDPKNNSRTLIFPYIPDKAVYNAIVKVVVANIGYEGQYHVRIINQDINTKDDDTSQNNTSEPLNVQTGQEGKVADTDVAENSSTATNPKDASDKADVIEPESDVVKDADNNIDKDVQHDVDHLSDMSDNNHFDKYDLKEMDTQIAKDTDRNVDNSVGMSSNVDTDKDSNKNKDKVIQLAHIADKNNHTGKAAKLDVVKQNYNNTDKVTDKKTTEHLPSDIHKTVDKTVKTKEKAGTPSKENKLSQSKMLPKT
UniProt P69905: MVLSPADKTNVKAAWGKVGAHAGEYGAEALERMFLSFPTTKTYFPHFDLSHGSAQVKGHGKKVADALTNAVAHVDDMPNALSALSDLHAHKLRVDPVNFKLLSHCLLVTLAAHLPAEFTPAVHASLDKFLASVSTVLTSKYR

This assay deals with IsdH NEAT1–NEAT3 (full-length IsdH) (S. aureus Mu50) (UniProt Q931P4). Put plainly: SPR; both purified.

These are yes or no findings as the source states them, for the method shown. Some binding calls cover weakened binding; strength is not graded here.

In the case of “human hemoglobin (methemoglobin) (from UniProt P69905 1-142; P68871 1-147) (complex)”, the binding result is on record as “binds”.
